According to US20130090457A1:
Results are given in words; binding and its absence hold for the method and conditions named. Some results given as binding are weak or reduced against the parent protein; the word gives no strength.

Sequences of proteins named here, by UniProt entry; tags and fusion partners are left off. A change or cut given only in a name is not applied to a line headed by its entry.
UniProt Q99MB1: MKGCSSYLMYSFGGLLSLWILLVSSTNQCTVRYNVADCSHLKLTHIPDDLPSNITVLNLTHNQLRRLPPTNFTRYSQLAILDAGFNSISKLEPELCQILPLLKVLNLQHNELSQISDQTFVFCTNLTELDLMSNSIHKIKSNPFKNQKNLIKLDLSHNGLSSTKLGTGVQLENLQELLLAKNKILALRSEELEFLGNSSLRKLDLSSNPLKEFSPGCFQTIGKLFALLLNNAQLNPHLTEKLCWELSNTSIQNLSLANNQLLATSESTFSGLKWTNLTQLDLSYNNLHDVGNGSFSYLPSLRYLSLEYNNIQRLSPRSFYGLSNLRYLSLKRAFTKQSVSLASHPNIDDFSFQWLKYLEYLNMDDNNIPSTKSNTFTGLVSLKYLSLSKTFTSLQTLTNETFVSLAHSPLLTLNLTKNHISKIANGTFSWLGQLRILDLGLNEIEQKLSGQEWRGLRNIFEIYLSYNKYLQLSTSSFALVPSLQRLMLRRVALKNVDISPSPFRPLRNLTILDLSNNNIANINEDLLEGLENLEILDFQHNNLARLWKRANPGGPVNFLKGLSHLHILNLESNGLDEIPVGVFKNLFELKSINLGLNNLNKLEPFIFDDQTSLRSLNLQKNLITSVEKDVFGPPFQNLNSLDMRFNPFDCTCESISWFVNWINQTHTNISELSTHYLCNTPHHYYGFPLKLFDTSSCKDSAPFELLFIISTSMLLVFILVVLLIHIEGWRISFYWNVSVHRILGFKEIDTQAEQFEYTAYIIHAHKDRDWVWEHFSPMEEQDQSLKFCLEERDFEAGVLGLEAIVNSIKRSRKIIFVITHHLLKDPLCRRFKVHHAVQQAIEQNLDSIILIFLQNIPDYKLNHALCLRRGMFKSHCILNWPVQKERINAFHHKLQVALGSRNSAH

Key:
[1] = target: full-length murine TLR3 on cells (mouse) (UniProt Q99MB1); experiment: flow cytometry, surface staining of peritoneal macrophages
[2] = target: full-length murine TLR3 on cells (mouse) (UniProt Q99MB1); experiment: flow cytometry, surface staining of thioglycollate-elicited peritoneal macrophages of C57BL/6 versus TLR3KO mice with Alexa-Fluor 647 conjugated mAb c1811

B1: mAb c1811 (antibody, mouse IgG1, kappa, V domains shown)
VH: EVQLVASGGGLVKPGASLKLSCVASGFTFSDYWMAWVRQTPGKPMEYIGDIKSDGSKVNYAPSLKNRFTISRDNARTTLYLQMSNVRSEDTATYYCNRDIGPDWYFDFWGPGTMVTVSS
VL: DIQMTQSPTSLSASLGETVTIECRASEDIYNGLAWYQQKPGKSPQLLIYDSNSLHTGVPSRFSGRGSGTQYSLRINSLQSEDVASYFCQQYYDYPLTFGSGTKLEIKR
With B1 the binding [1] was “binds” and the binding [2] was “binds”.
